Reference: the supplement of paper PMC6078165
The reference is the same well before dosing, and untreated signal decays as well.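 Fibroblast labels denote human fibroblasts, mainly primary ones from uterus (C12385, HUF), lung (H6013), bone (Hs27A), adrenal (HADF) and skin (WS1), plus mammary HMF and breast cancer-associated Hs343T. Cancer cells are basal-like or mesenchymal-like triple-negative breast cancer lines. A hit is a response shift exceeding 3x replicate standard deviation. The tissue of the other fibroblasts is not given here.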

System: MDAMB231
Experiment: relative JC-1 red fluorescence (viability) vs pre-drug, coculture with fibroblast (fraction); higher = more viable cancer cells
Experimental: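 JC-1 labelled TNBC cells cocultured 1:1 (1,500 cells each) with CellTrace Violet stained primary or stromal fibroblasts in 384-well plates in FluoroBrite medium, treated with one of 42 anticancer drugs at 0.1, 1, 10 or 100 uM. JC-1 red fluorescence (mitochondrial integrity in cancer cells only) was read by plate reader every 8 h for 72 h. Values are normalised to each well's pre-drug value. The stock of one drug was tenfold lower, so its dose labels may be too high.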

O=NN(CCCl)C(=O)NC1CCCCC1 [Lomustine]
relative JC-1 red fluorescence
Settings	8 h	16 h	24 h	32 h	40 h	48 h	56 h	64 h	72 h
0.1 µM, coculture fibroblast: C12385	0.767	0.74028	0.666	0.641	0.584	0.551	0.509	0.506	0.49
0.1 µM, coculture fibroblast: H6013	0.8772	0.85	0.828	0.82	0.809	0.804	0.79	0.773	0.739
0.1 µM, coculture fibroblast: H6019	0.7794	0.7052	0.6838	0.648	0.609	0.574	0.53	0.505	0.473
0.1 µM, coculture fibroblast: H6076	0.897	0.822	0.772	0.731	0.687	0.645	0.615	0.589	0.576
0.1 µM, coculture fibroblast: H6231	0.88	0.7934	0.726	0.667	0.618	0.584	0.544	0.538	0.514
0.1 µM, coculture fibroblast: HADF	0.861	0.827	0.788	0.756	0.721	0.689	0.674	0.666	0.623
0.1 µM, coculture fibroblast: HCFa	0.8642	0.814	0.764	0.724	0.679	0.622	0.604	0.559	0.515
0.1 µM, coculture fibroblast: HCPF	0.849	0.7686	0.721	0.691	0.643	0.608	0.582	0.557	0.547
0.1 µM, coculture fibroblast: HHSteC	0.8799	0.8588	0.8208	0.781	0.741	0.725	0.679	0.661	0.621
0.1 µM, coculture fibroblast: HMF	0.857	0.7853	0.7278	0.6918	0.647	0.609	0.579	0.553	0.54
0.1 µM, coculture fibroblast: HPFa	0.9142	0.87	0.808	0.746	0.732	0.6846	0.618	0.5906	0.5351
0.1 µM, coculture fibroblast: HUF	0.848	0.736	0.754	0.647	0.584	0.575	0.535	0.538	0.522
0.1 µM, coculture fibroblast: Hs5	0.8822	0.825	0.786	0.738	0.694	0.636	0.601	0.569	0.539
0.1 µM, coculture fibroblast: Hs27A	0.8744	0.8142	0.783	0.748	0.704	0.65	0.651	0.619	0.576
0.1 µM, coculture fibroblast: Hs343T	0.839	0.733	0.679	0.641	0.589	0.544	0.502	0.486	0.472
0.1 µM, coculture fibroblast: WS1	0.775	0.696	0.662	0.589	0.55	0.523	0.484	0.484	0.462
1 µM, coculture fibroblast: C12385	0.752	0.717	0.637	0.614	0.553	0.516	0.475	0.46	0.446
1 µM, coculture fibroblast: H6013	0.856	0.791	0.735	0.719	0.6794	0.659	0.644	0.623	0.587
1 µM, coculture fibroblast: H6019	0.7449	0.645	0.584	0.5412	0.4974	0.4635	0.42078	0.401	0.357
1 µM, coculture fibroblast: H6076	0.86	0.763	0.725	0.712	0.683	0.64	0.623	0.611	0.601
1 µM, coculture fibroblast: H6231	0.889	0.788	0.696	0.6499	0.594	0.551	0.507	0.492	0.463
1 µM, coculture fibroblast: HADF	0.854	0.797	0.742	0.7061	0.66	0.608	0.587	0.565	0.525
1 µM, coculture fibroblast: HCFa	0.8849	0.7976	0.763	0.71	0.651	0.601	0.576	0.545	0.503
1 µM, coculture fibroblast: HCPF	0.839	0.762	0.824	0.808	0.744	0.696	0.662	0.633	0.599
1 µM, coculture fibroblast: HHSteC	0.883	0.819	0.774	0.72	0.675	0.646	0.595	0.573	0.532
1 µM, coculture fibroblast: HMF	0.856	0.759	0.6761	0.6401	0.588	0.55	0.501	0.487	0.463
1 µM, coculture fibroblast: HPFa	0.901	0.8402	0.788	0.726	0.689	0.645	0.583	0.556	0.5
1 µM, coculture fibroblast: HUF	0.858	0.765	0.757	0.63	0.562	0.537	0.483	0.465	0.444
1 µM, coculture fibroblast: Hs5	0.868	0.795	0.724	0.68	0.634	0.576	0.537	0.51	0.477
1 µM, coculture fibroblast: Hs27A	0.891	0.859	0.812	0.792	0.761	0.704	0.723	0.71	0.673
1 µM, coculture fibroblast: Hs343T	0.858	0.737	0.629	0.57601	0.5166	0.464	0.402	0.3782	0.353
1 µM, coculture fibroblast: WS1	0.758	0.689	0.59875	0.5542	0.504	0.472	0.418	0.405	0.375
